Data as given in article doi:10.1101/2022.06.07.495180.

T1: SLP76 (human (endogenous in primary T cells)) (UniProt Q13094)
T1 sequence: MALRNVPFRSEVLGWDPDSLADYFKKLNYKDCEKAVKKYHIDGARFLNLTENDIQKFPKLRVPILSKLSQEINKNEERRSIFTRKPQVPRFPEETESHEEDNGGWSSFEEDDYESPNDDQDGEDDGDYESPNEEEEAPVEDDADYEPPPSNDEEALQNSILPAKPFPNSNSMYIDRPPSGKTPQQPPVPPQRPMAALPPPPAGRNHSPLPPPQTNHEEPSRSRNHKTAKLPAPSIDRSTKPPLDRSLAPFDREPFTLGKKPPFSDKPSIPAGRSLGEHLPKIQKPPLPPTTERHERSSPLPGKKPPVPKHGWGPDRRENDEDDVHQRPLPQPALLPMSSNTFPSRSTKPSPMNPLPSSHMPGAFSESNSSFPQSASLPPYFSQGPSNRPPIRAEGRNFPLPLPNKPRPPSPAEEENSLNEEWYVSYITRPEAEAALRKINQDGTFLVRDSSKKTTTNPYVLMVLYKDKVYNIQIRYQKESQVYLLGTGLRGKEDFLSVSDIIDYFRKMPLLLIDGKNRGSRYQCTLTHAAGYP


Legend:
[1] = target: T1, SLP76 (human (endogenous in primary T cells)); assay: co-IP
[2] = target: PI3K (human (endogenous in primary T cells)); assay: co-IP

Molecule	binding [1]	binding [2]
PLCg (human (endogenous in primary T cells))	binds	–
LAT (protein, UniProt O43561 1-262) MEEAILVPCVLGLLLLPILAMLMALCVHCHRLPGSYDSTSSDSLYPRGIQFKRPHTVAPWPPAYPPVTSYPPLSQPDLLPIPRSPQPLGGSHRTPSSRRDSDGANSVASYENEGASGIRGAQAGWGVWGPSWTRLTPVSLPPEPACEDADEDEDDYHNPGYLVVLPDSTPATSTAAPSAPALSTPGIRDSAFSMESIDDYVNVPESGESAEASLDGSREYVNVSQELHPGAAKTEPAALSSQEAEEVEEEGAPDYENLQELN	–	binds
SLP76 (protein, UniProt Q13094 1-533) MALRNVPFRSEVLGWDPDSLADYFKKLNYKDCEKAVKKYHIDGARFLNLTENDIQKFPKLRVPILSKLSQEINKNEERRSIFTRKPQVPRFPEETESHEEDNGGWSSFEEDDYESPNDDQDGEDDGDYESPNEEEEAPVEDDADYEPPPSNDEEALQNSILPAKPFPNSNSMYIDRPPSGKTPQQPPVPPQRPMAALPPPPAGRNHSPLPPPQTNHEEPSRSRNHKTAKLPAPSIDRSTKPPLDRSLAPFDREPFTLGKKPPFSDKPSIPAGRSLGEHLPKIQKPPLPPTTERHERSSPLPGKKPPVPKHGWGPDRRENDEDDVHQRPLPQPALLPMSSNTFPSRSTKPSPMNPLPSSHMPGAFSESNSSFPQSASLPPYFSQGPSNRPPIRAEGRNFPLPLPNKPRPPSPAEEENSLNEEWYVSYITRPEAEAALRKINQDGTFLVRDSSKKTTTNPYVLMVLYKDKVYNIQIRYQKESQVYLLGTGLRGKEDFLSVSDIIDYFRKMPLLLIDGKNRGSRYQCTLTHAAGYP	–	binds
TRAF1 (protein, UniProt Q13077 1-416) MASSSGSSPRPAPDENEFPFGCPPTVCQDPKEPRALCCAGCLSENPRNGEDQICPKCRGEDLQSISPGSRLRTQEKAHPEVAEAGIGCPFAGVGCSFKGSPQSVQEHEVTSQTSHLNLLLGFMKQWKARLGCGLESGPMALEQNLSDLQLQAAVEVAGDLEVDCYRAPCSESQEELALQHFMKEKLLAELEGKLRVFENIVAVLNKEVEASHLALATSIHQSQLDRERILSLEQRVVELQQTLAQKDQALGKLEQSLRLMEEASFDGTFLWKITNVTRRCHESACGRTVSLFSPAFYTAKYGYKLCLRLYLNGDGTGKRTHLSLFIVIMRGEYDALLPWPFRNKVTFMLLDQNNREHAIDAFRPDLSSASFQRPQSETNVASGCPLFFPLSKLQSPKHAYVKDDTMFLKCIVETST	–	binds

No constants are given. Whether binding was seen depends on the method and setting. In cells and extracts the contact can be indirect. A result given as binding can be weak or reduced; the word gives no strength.
